Where a name gives a salt, the structure may show the parent alone. In all, about 1,000 compounds were measured (“cFRET/donor change relative to DMSO, normalised to beta-lapachone positive control (supercomplex I-IV assembly)”: median about 0.18, lowest 2% from about -1 on). The list shows a part of the results.
System: C2C12 (NDUFB8-AcGFP / COX8A-DsRed-Monomer FRET reporter)
Assay: cFRET/donor change relative to DMSO, normalised to beta-lapachone positive control (supercomplex I-IV assembly) (fraction of beta-lapachone effect); higher = more respiratory supercomplex assembly
Details: 40 µM; 24 h
Protocol: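 Cells were treated with 40 uM compound for 24 h and imaged on an IN Cell Analyzer 6000. Corrected FRET was divided by donor signal (cFRET/donor) and measured in two replicate experiments. The score is (mean cFRET/donor of compound - mean DMSO) / (mean beta-lapachone 40 uM - mean DMSO). Compounds flagged for prominent cell death, abnormal morphology or decreased cell number were excluded.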

Row | Structure (SMILES) | cFRET/donor change
1 | C#CC(N)CCC(=O)O (stereo not given) [gamma-Acetylinic GABA] | 0.24
2 | CC(N/C(=N\C#N)Nc1ccncc1)C(C)(C)C (stereo not given) [Pinacidil] | 0.149
3 | O=c1cc(-c2ccccc2)oc2c(O)c(O)ccc12 [7,8-Dihydroxyflavone hydrate] | -0.0745
4 | CCN(CC)CCOC(=O)C1(C2CCCCC2)CCCCC1 [Dicyclomine hydrochloride] | 0.39
5 | Oc1cc(O)c2c(c1)O[C@H](c1ccc(O)c(O)c1)[C@@H](O)C2 [(+)-Catechin Hydrate] | 0.289
6 | C[N+]1(C)CCC(OC(=O)C(c2ccccc2)c2ccccc2)CC1 [4-DAMP methiodide] | 0.0138
7 | C[N+]1(C)CCC(OC(=O)C(c2ccccc2)c2ccccc2)CC1 | -0.0299
8 | CN(C)CCCN1c2ccccc2Sc2ccc(C(F)(F)F)cc21 [Triflupromazine hydrochloride] | 0.712
9 | O=c1[nH]c(=O)n(C2CCCO2)cc1F (stereo not given) [Tegafur] | 0.268
10 | CCC(C)N(C)C(=O)c1cc2ccccc2c(-c2ccccc2Cl)n1 (stereo not given) | 0.438
11 | Nc1nc2ccc(Cl)cc2c2nc(-c3ccco3)nn12 | 0.163
12 | Nc1ncnc2c1c(-c1ccc(Oc3ccccc3)cc1)cn2C1CCCC1 | 0.0708
13 | N[C@@H]1[C@H]2CN(c3nc4c(cc3F)c(=O)c(C(=O)O)cn4-c3ccc(F)cc3F)C[C@@H]12 [Trovafloxacin mesylate] | 0.3
14 | CN1CCN(CCCN2c3ccccc3Sc3ccc(Cl)cc32)CC1 [Prochlorperazine dimaleate] | 0.466
15 | Cn1ccc2cc(NC(=O)Nc3cccnc3)ccc21 | 0.093
16 | O=C(/C=C/c1ccc(O)c(O)c1)OCCc1ccccc1 [Caffeic acid phenethyl ester] | 0.294
17 | CC(=O)OCC(CCn1cnc2cnc(N)nc21)COC(C)=O [Famciclovir] | -0.279
18 | NNc1nncc2ccccc12 [Hydralazine hydrochloride] | 0.85
19 | CC(C)C[C@H](NP(=O)(O)O[C@H]1O[C@H](C)[C@@H](O)[C@H](O)[C@@H]1O)C(=O)N[C@@H](Cc1c[nH]c2ccccc12)C(=O)O [Phosphoramidon disodium] | 0.483
20 | Cc1ccc([N+](=O)[O-])cc1S(=O)(=O)N(C)C | -0.04
21 | COc1ccc(-c2cc3ncc(C)n3c(Nc3ncccc3C(N)=O)n2)cc1OC [BAY 61-3606 hydrochloride hydrate] | 0.195
22 | COc1ccc(C2CNC(=O)C2)cc1OC1CCCC1 (stereo not given) [Rolipram] | 0.312
23 | CC(/C=C/c1cccc(Oc2ccc(F)cc2)c1)N(O)C(N)=O (stereo not given) | 0.179
24 | O=c1c(O)c(-c2ccc(O)cc2O)oc2cc(O)cc(O)c12 [Morin] | -3.25
25 | COc1cc([C@@H]2c3cc4c(cc3[C@@H](O[C@@H]3O[C@@H]5CO[C@@H](C)O[C@H]5[C@H](O)[C@H]3O)[C@H]3COC(=O)[C@H]23)OCO4)cc(OC)c1O [Etoposide] | 0.0173
26 | COc1ccccc1OCC(O)CN1CCN(CC(=O)Nc2c(C)cccc2C)CC1 (stereo not given) [Ranolazine dihydrochloride] | 0.057
27 | O=[N+]([O-])c1cccc2cn[nH]c12 [7-Nitroindazole] | 0.565

5 entries from above in a different format.
Row,Structure (SMILES),cFRET/donor change
7,C[N+]1(C)CCC(OC(=O)C(c2ccccc2)c2ccccc2)CC1,-0.0299
8,CN(C)CCCN1c2ccccc2Sc2ccc(C(F)(F)F)cc21 [Triflupromazine hydrochloride],0.712
9,O=c1[nH]c(=O)n(C2CCCO2)cc1F (stereo not given) [Tegafur],0.268
10,CCC(C)N(C)C(=O)c1cc2ccccc2c(-c2ccccc2Cl)n1 (stereo not given),0.438
11,Nc1nc2ccc(Cl)cc2c2nc(-c3ccco3)nn12,0.163

The list goes on.

Row | Structure (SMILES) | cFRET/donor change
28 | COc1cc(/C=C(\C#N)C(=O)Nc2nnc(C(F)(F)F)s2)ccc1OCc1ccc(C(F)(F)F)cc1C(F)(F)F | -0.194
29 | CCCNCC(O)COc1ccccc1C(=O)CCc1ccccc1 (stereo not given) [Propafenone hydrochloride] | 0.651
30 | N[C@H](C(=O)O)[C@H](O)c1ccc(O)c(O)c1 | 0.419
31 | CN(C)c1nc(N(C)C)nc(N(C)C)n1 [Altretamine] | -0.0875
32 | Nc1nc2c(nc(Br)n2C2OC3COP(=O)(O)O[C@@H]3C2O)c(=O)[nH]1 (stereo not given in full) [8-Bromo-cGMP sodium] | 0.374
33 | N[C@H](C(=O)O)c1cc(O)cc(O)c1 [(S)-3,5-Dihydroxyphenylglycine] | 0.27
34 | c1ccc(C(NCc2cccnc2)(c2ccccc2)c2ccccc2)cc1 | 0.35
35 | Cc1cccc(C#Cc2ccccc2)n1 [6-Methyl-2-(phenylethynyl)pyridine hydrochloride] | 0.704
36 | C=CCN1CCc2c(cc(O)c(O)c2Br)[C@@H](c2ccccc2)C1 [R(+)-6-Bromo-APB hydrobromide] | 0.558
37 | CCn1ccnc1CC1COc2ccccc2O1 (stereo not given) [Imiloxan hydrochloride] | -0.0679
38 | O=C(NOC[C@H](O)CO)c1ccc(F)c(F)c1Nc1ccc(I)cc1F | 0.21
39 | Cc1cc(C)c(/C=C2\C(=O)Nc3ccccc32)[nH]1 | -2.59
40 | O=C1CC2(CCCC2)CC(=O)N1CCCCN1CCN(c2ncccn2)CC1 [Buspirone hydrochloride] | -0.101
41 | Nc1ncnc2c1nc(Sc1ccc(Cl)cc1)n2C1OC2COP(=O)(O)O[C@@H]2[C@@H]1O (stereo not given in full) [8-(4-Chlorophenylthio)-cAMP sodium] | 0.225
42 | O=C(NOCC1CC1)c1cc(Br)c(F)c(F)c1Nc1ccc(I)cc1Cl | 0.176
43 | O=C(O)C1=CCCNC1 [Guvacine hydrochloride] | -0.0153
44 | Nc1ccc(S(=O)(=O)Nc2ccnn2-c2ccccc2)cc1 [Sulfaphenazole] | 0.274
45 | CC(C)(C)[C@]1(O)CCN2C[C@H]3c4ccccc4CCc4cccc(c43)[C@@H]2C1 (racemic) [(±)-Butaclamol hydrochloride] | 0.944
46 | CC(C)(C)[C@]1(O)CCN2C[C@H]3c4ccccc4CCc4cccc(c43)[C@@H]2C1 [(+)-Butaclamol hydrochloride] | -0.00393
47 | Nc1nc2[nH]c(=O)cnc2c(=O)[nH]1 [Isoxanthopterin] | -0.168
48 | Nc1nc(=O)c(Br)c(-c2ccccc2)[nH]1 [Bropirimine] | -0.0226
49 | COc1cc(NS(C)(=O)=O)ccc1Nc1c2ccccc2nc2ccccc12 [Amsacrine hydrochloride] | 0.257
50 | N=C(N)SCCc1c[nH]cn1 [Imetit dihydrobromide] | -0.0661
51 | Cc1cnc(NC(=O)C2=C(O)c3ccccc3S(=O)(=O)N2C)s1 [Meloxicam sodium] | 0.0692
52 | CC(C)NCC(O)COc1ccc(CC(N)=O)cc1 (racemic) [(±)-Atenolol] | -0.0379
53 | COCCOC(=O)C1=C(C)NC(C)=C(C(=O)OC/C=C/c2ccccc2)C1c1cccc([N+](=O)[O-])c1 (stereo not given) [Cilnidipine] | 0.107
54 | CCn1nc(C(=O)O)c(=O)c2cc3c(cc21)OCO3 [Cinoxacin] | 0.515

Rewritten in CSV form: entries from further up
Row,Structure (SMILES),cFRET/donor change
24,O=c1c(O)c(-c2ccc(O)cc2O)oc2cc(O)cc(O)c12 [Morin],-3.25
25,COc1cc([C@@H]2c3cc4c(cc3[C@@H](O[C@@H]3O[C@@H]5CO[C@@H](C)O[C@H]5[C@H](O)[C@H]3O)[C@H]3COC(=O)[C@H]23)OCO4)cc(OC)c1O [Etoposide],0.0173

Continued:

Row | Structure (SMILES) | cFRET/donor change
55 | CN1CCN(c2nc3cc(C(F)(F)F)ccc3n3cccc23)CC1 | 0.414
56 | CCCn1c(=O)c2c(ncn2C)n(CCC)c1=O [1,3-Dipropyl-7-methylxanthine] | 0.0722
57 | C[C@H]1C[C@H]2[C@@H]3CCC4=CC(=O)C=C[C@]4(C)[C@@]3(F)[C@@H](O)C[C@]2(C)[C@@]1(O)C(=O)CO [Betamethasone] | 0.012
58 | CC1=Nc2ccc(Cl)cc2S(=O)(=O)N1 [Diazoxide] | -0.0731
59 | Cc1ccc(Cl)c(Nc2ccccc2C(=O)O)c1Cl [Meclofenamic acid sodium] | 0.255
60 | CCCCCCCCCCCCCCCC(=O)OC[C@H](COP(=O)(O)OCCNC(=O)[C@H](C)NC(=O)CC[C@@H](NC(=O)[C@H](C)NC(=O)[C@@H](C)O[C@H]1[C@H](O)[C@@H](CO)OC(O)[C@@H]1NC(C)=O)C(N)=O)OC(=O)CCCCCCCCCCCCCCC (stereo not given in full) [Mifamurtide] | -0.0931
61 | Cn1c(=O)c2nc[nH]c2n(C)c1=O [Theophylline] | 0.334
62 | CN(C)CCC(c1ccc(Cl)cc1)c1ccccn1 (single isomer, unassigned; (+)) [(+)-Chlorpheniramine maleate] | 0.378
63 | Cc1scc2c1N(C(=O)CN1CCN(C)CC1)c1ccccc1NC2=O [Telenzepine dihydrochloride] | -0.254
64 | Cc1cc2c(cc1Cl)N(C(=O)Nc1ccc(Oc3cccnc3C)nc1)CC2 | -1.37
65 | O=C(N[C@@H](Cc1ccccc1)C(=O)CCl)OCc1ccccc1 [Z-L-Phe chloromethyl ketone] | 0.144
66 | CCSC(=N)N [S-Ethylisothiourea hydrobromide] | 0.396
67 | CC(=O)c1ccc(S(=O)(=O)NC(=O)NC2CCCCC2)cc1 [Acetohexamide] | 0.4
68 | Nc1ncn([C@@H]2O[C@H](CO)[C@@H](O)[C@H]2O)c(=O)n1 [5-azacytidine] | 0.0634
69 | CCCNC(C)C(=O)Nc1ccccc1C (stereo not given) [Prilocaine hydrochloride] | 0.324
70 | COc1ccc(CN(CCN(C)C)c2ccccn2)cc1 [Pyrilamine maleate] | 0.225
71 | CNC(=O)c1cc2c(cn1)[nH]c1ccccc12 [N-Methyl-beta-carboline-3-carboxamide] | -0.445
72 | CCC(=O)N1CCN(C(=O)c2ccccc2)CC1 | 0.181
73 | OC[C@H]1O[C@H]([S-])[C@H](O)[C@@H](O)[C@@H]1O.[Au+] [Aurothioglucose] | -0.0527
74 | CCCN[C@H]1CCc2nc(N)sc2C1 [Pramipexole dihydrochloride] | 0.161
75 | O=C1CCC(c2ccc(-n3ccnc3)cc2)=NN1 [Imazodan] | 0.0699
76 | Cn1c(=O)c(-c2c(Cl)cccc2Cl)cc2cnc(Nc3ccc(N4CCOCC4)cc3)nc21 | -0.227
77 | NC(CCCP(=O)(O)O)C(=O)O (racemic) [(±)-2-Amino-5-phosphonopentanoic acid] | -0.122
78 | NCC(O)c1ccc(O)c(O)c1 (racemic) [(±)-Norepinephrine (+)bitartrate] | -0.03
79 | CCCCOC(=O)NS(=O)(=O)c1sc(CC(C)C)cc1-c1ccc(Cn2c(CC)nc3c(C)cc(C)nc32)cc1 | 0.261
80 | FC(F)(F)c1ccccc1-n1ccnc1 [1-[2-(Trifluoromethyl)phenyl]imidazole] | 0.0226

Reference: the supplement of paper PMC9877034
